Our source for the IC50 values is ChEMBL document CHEMBL1138139, “Synthesis of 1-(3',4',5'-trimethoxy) phenyl naphtho[2,1b]furan as a novel anticancer agent” (Bioorg Med Chem Lett, 2006).

The structures appear in SMILES notation. Converted amounts (≈) assume the structure as drawn.

In this assay the test system is MCF7. In words: Cytotoxicity against MCF7 cell line by MTT assay. In kind it is functional, cell-based. The conditions noted are these: Homo sapiens. For orientation: Tetrazolium dyes change colour on reduction, which living cells bring about.

In the case of `CC(=O)O[C@H]1C(=O)[C@@]2(C)[C@H]([C@H](OC(=O)c3ccccc3)[C@]3(O)C[C@H](OC(=O)[C@H](O)[C@@H](NC(=O)c4ccccc4)c4ccccc4)C(C)=C1C3(C)C)[C@]1(OC(C)=O)CO[C@@H]1C[C@@H]2O` [PACLITAXEL], the IC50 – broadly, the concentration needed to halve the response being measured – was found to be 5 ng/mL (≈ 5.86 nM).
